The list is a part of this screen's results and no random one: it is rich in T/C values a quarter to a half above the control, in often repeated tests (any T/C) and in doses without a T/C. Further doses and runs are listed elsewhere. T/C gives the treated animals as a percentage of the vehicle group. Some doses have a count of surviving animals in place of a T/C: the source files T/C as zero there, which appears to mark a toxic dose or a test without result, not a measured value. Some survivor counts are full or nearly so, which does not show that the dose was tolerated: the source hardly ever lists a survival T/C far under the control, and the zero likely stands for such cases as well. Survivors were counted at the toxicity check, usually on the fifth day, unless a day is given; later deaths do not show. Schedules are NCI's codes, taken here to give the interval after Q, in days (D) or hours (H), and the number of doses after X. Some entries were tested several times; the values are given in rising order. Where survival is the endpoint, this PubChem deposit counts one and a half times the control or more as active, and values a quarter to a half above the control carry no call in these data; other NCI protocols may use other cut-offs. Some T/C values are followed by the survivors on the day toxicity was checked, most often the fifth; where none is given, no animal had died by that day. Where a SMILES comes first, the peptide text is derived from it. The star is where a group is joined. Boc = CC(C)(C)OC(=O)*

The experiment concerns B6C3F1 mice, B16 melanoma ip, median survival T/C. The experiment in a line: NCI In Vivo Anticancer Drug Screen. Data for tumor model B16 Melanoma (intraperitoneal) in B6C3F1 mice. The settings on record: T/C endpoint: median survival time, higher T/C = longer survival. The gist of the method: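 Antitumor effect was judged in mice with transplanted tumors by dividing the treated group's survival measure by that of vehicle controls.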

Where [1] appears, read: dose: 400.0 mg/kg/injection, schedule: Q01DX009 (ip), vehicle: Klucel (hydroxypropylcellulose) (HPC).
[2] abbreviates: dose: 200.0 mg/kg/injection, schedule: Q01DX009 (ip), vehicle: saline with Tween-80.
Setting [3] is: dose: 400.0 mg/kg/injection, schedule: Q01DX009 (ip), vehicle: saline with Tween-80.
The mark [4] stands for this setting: dose: 50.0 mg/kg/injection, schedule: Q01DX009 (ip), vehicle: saline with Tween-80.
Where [5] appears, read: dose: 100.0 mg/kg/injection, schedule: Q01DX009 (ip), vehicle: saline with Tween-80.

As for `COC(=O)C[C@](O)(CCC(C)(C)O)C(=O)O[C@@H]1C(OC)=C[C@]23CCCN2CCc2cc4c(cc2[C@H]13)OCO4`, the T/C reads like this: (dose: 0.25 mg/kg/injection, schedule: Q01DX009 (ip), vehicle: saline) 136 % of control; (dose: 2.0 mg/kg/injection, schedule: Q01DX009 (ip), vehicle: saline) 148 % of control. For the same compound, the survivor count (dose: 4.0 mg/kg/injection, schedule: Q01DX009 (ip), vehicle: saline) is 6 of 10 and 7 of 10.

On to `[Cl][Pt+2][Cl].[NH-]c1ccc(Cl)cc1[NH-]`, for which the T/C reads like this: (dose: 5.0 mg/kg/injection, schedule: Q01DX009 (ip), vehicle: saline with Tween-80) 133 % of control; (dose: 10.0 mg/kg/injection, schedule: Q01DX009 (ip), vehicle: saline with Tween-80) 141 % of control. Also, the survivor count (dose: 40.0 mg/kg/injection, schedule: Q01DX009 (ip), vehicle: saline with Tween-80) is given as 10 of 10.

`CSCCC(NC(=O)C(CC(C)C)NC(=O)OC(C)(C)C)C(N)=O` (stereo not drawn) (Boc-Leu-Met-NH2; configuration not given here): under setting [1], the survivor count was 9 of 10.

As to `C=C1C(O)C2(O)OCC34C(CC5C(C)=CC(=O)C(O)C5(C)C23)OC(=O)C(OC(=O)C/C=C(\C)CCCCC)C14` (centres undefined), the survivor count by setting is: (dose: 13.33 mg/kg/injection, schedule: Q01DX009 (ip), vehicle: saline + Tween-80 + alcohol) 6 of 10; (dose: 16.0 mg/kg/injection, schedule: Q01DX009 (ip), vehicle: saline + alcohol) 4 of 10; (dose: 22.22 mg/kg/injection, schedule: Q01DX009 (ip), vehicle: saline + Tween-80 + alcohol) 1 of 10; (dose: 32.0 mg/kg/injection, schedule: Q01DX009 (ip), vehicle: saline + alcohol) 1 of 10; (dose: 64.0 mg/kg/injection, schedule: Q01DX009 (ip), vehicle: saline + alcohol) 0 of 10.

As for `O=C(CCCN1CCC(C(O)c2ccc(F)cc2)CC1)c1ccc(F)cc1` (centres undefined), under “dose: 25.0 mg/kg/injection, schedule: Q01DX009 (ip), vehicle: saline with Tween-80”, the survivor count is reported as 6 of 10.

Consider `CC(C)(C)OC(=O)NC(Cc1ccc(O)cc1)C(=O)ON1C(=O)CCC1=O` (centres undefined), for which, under setting [1], the survivor count was 9 of 10.

Regarding `C=CC(C)(C)n1cc(C2=C(O)C(=O)C(c3cn(C(C)(C)C=C)c4ccccc34)=C(O)C2=O)c2ccccc21`, the survivor count is 5 of 10 (dose: 0.01 mg/kg/injection, schedule: Q01DX009 (ip), vehicle: DMSO); 4 of 10 (dose: 0.02 mg/kg/injection, schedule: Q01DX009 (ip), vehicle: DMSO); 3 of 10 (dose: 0.04 mg/kg/injection, schedule: Q01DX009 (ip), vehicle: DMSO); 3 of 10 and 10 of 10 (dose: 0.08 mg/kg/injection, schedule: Q01DX009 (ip), vehicle: DMSO); 9 of 10 (dose: 0.16 mg/kg/injection, schedule: Q01DX009 (ip), vehicle: DMSO); 10 of 10 (dose: 0.31 mg/kg/injection, schedule: Q01DX009 (ip), vehicle: DMSO). The survivor count runs as follows: (dose: 0.62 mg/kg/injection, schedule: Q01DX009 (ip), vehicle: DMSO) 10 of 10; (dose: 1.25 mg/kg/injection, schedule: Q01DX009 (ip), vehicle: DMSO) 6 of 10 and 9 of 10; (dose: 2.5 mg/kg/injection, schedule: Q01DX009 (ip), vehicle: DMSO) 8 of 10; (dose: 5.0 mg/kg/injection, schedule: Q01DX009 (ip), vehicle: DMSO) 5 of 10; (dose: 10.0 mg/kg/injection, schedule: Q01DX009 (ip), vehicle: DMSO) 5 of 10 and 9 of 10; (dose: 20.0 mg/kg/injection, schedule: Q01DX009 (ip), vehicle: DMSO) 10 of 10. The survivor count by setting is: (dose: 40.0 mg/kg/injection, schedule: Q01DX009 (ip), vehicle: DMSO) 1 of 10; (dose: 80.0 mg/kg/injection, schedule: Q01DX009 (ip), vehicle: DMSO) 0 of 10.

For `COc1ccc(C(=O)C(CN(C)C)CN(C)C)cc1`, under “dose: 50.0 mg/kg/injection, schedule: Q01DX009 (ip), vehicle: saline”, the survivor count is 0 of 10.

Regarding `CN=C(N)N/N=C(\C)c1ccc2c(c1)Cc1ccccc1-2`, the survivor count by setting is: under setting [2], 9 of 10; under setting [3], 8 of 10.

As for `CCCCCCCCCCCCCCCCS(=O)CC(O)COC(=O)c1ccc(C(=O)OCC(O)CS(=O)CCCCCCCCCCCCCCCC)cc1` (centres undefined), the survivor count (dose: 100.0 mg/kg/injection, schedule: Q01DX009 (ip), vehicle: saline + alcohol) is given as 10 of 10; the survivor count (dose: 200.0 mg/kg/injection, schedule: Q01DX009 (ip), vehicle: saline + alcohol) is on record as 10 of 10; the survivor count (dose: 400.0 mg/kg/injection, schedule: Q01DX009 (ip), vehicle: saline + alcohol) is listed as 10 of 10.

As for `CSCS(=O)C[C@H](CO)NC(=O)/C=C/c1c(C)[nH]c(=O)[nH]c1=O` (some centres undefined), the survivor count by setting is: (dose: 0.5 mg/kg/injection, schedule: Q01DX009 (ip), vehicle: saline) 9 of 10; (dose: 1.0 mg/kg/injection, schedule: Q01DX009 (ip), vehicle: saline) 7 of 10.

As to `CCCCCC[Se][Se]CCCCCC`, the survivor count is, setting by setting: (dose: 12.5 mg/kg/injection, schedule: Q01DX009 (ip), vehicle: Klucel (hydroxypropylcellulose) (HPC)) 10 of 10; (dose: 25.0 mg/kg/injection, schedule: Q01DX009 (ip), vehicle: Klucel (hydroxypropylcellulose) (HPC)) 3 of 10; (dose: 50.0 mg/kg/injection, schedule: Q01DX009 (ip), vehicle: Klucel (hydroxypropylcellulose) (HPC)) 2 of 10.

Regarding `[Cl][Pt+2][Cl].[NH-]CC1(C[NH-])CCC1`, the survivor count (dose: 6.25 mg/kg/injection, schedule: Q01DX009 (ip), vehicle: suspension in saline) is on record as 10 of 10.

Regarding `NC(Cc1ccc(N(CCCl)Cc2ccccc2)cc1)C(=O)O` (centres undefined), the T/C runs as follows: (dose: 12.5 mg/kg/injection, schedule: Q01DX009 (ip), vehicle: distilled water + Tween-80) 147 % of control [7 of 10 alive]; (dose: 25.0 mg/kg/injection, schedule: Q01DX009 (ip), vehicle: distilled water + Tween-80) 143 % of control; (dose: 50.0 mg/kg/injection, schedule: Q01DX009 (ip), vehicle: distilled water + Tween-80) 142 % of control [9 of 10 alive]. Besides, the survivor count (dose: 100.0 mg/kg/injection, schedule: Q01DX009 (ip), vehicle: distilled water + Tween-80) is given as 1 of 10.

For `COc1ccc(C(Cn2ccnc2)Sc2ccc(Cl)c(Cl)c2)cc1` (centres undefined), the survivor count runs as follows: under setting [4], 8 of 10 and 8 of 8; under setting [5], 5 of 10 and 9 of 10; under setting [2], 0 of 10 and 5 of 10.

Take `CC(=O)NC(CC(C)C)C(=O)O` (centres undefined): the survivor count under setting [4] is 10 of 10, the survivor count under setting [5] is on record as 10 of 10, the survivor count under setting [2] is given as 10 of 10 and the survivor count under setting [3] is reported as 10 of 10.

Take `O=NN(CCF)C(=O)NC1C(O)CCCC1O` (centres undefined): where the note is “dose: 120.0 mg/kg/injection, schedule: Q01DX001 (ip), vehicle: saline”, the survivor count was 5 of 10 on day 6.

For `OC1CCCC2CCC[N-]C12.OC1CCCC2CCC[N-]C12.[Mn+2]` (centres undefined), the survivor count (dose: 100.0 mg/kg/injection, schedule: Q01DX009 (ip), vehicle: Klucel (hydroxypropylcellulose) (HPC)) is reported as 10 of 10 and the survivor count (dose: 200.0 mg/kg/injection, schedule: Q01DX009 (ip), vehicle: Klucel (hydroxypropylcellulose) (HPC)) is 1 of 10.
